These are yes or no findings as the source states them, for the method shown.
Molecular target: TDP-43(256–264) peptide, ALR
Assay: native MS; ESI-MS (Q-ToF, soft ionisation settings); 10 µM peptide in 100 mM ammonium acetate, pH 7.5, without zinc or with 50 µM ZnCl2; both purified

binding: no binding (tested: 10 µM)
B1: TDP-43(256–264) peptide, ALR (peptide)
peptide: HISNAEPKH
